According to patent publication US7589121B2, “Use of furan alkyls for preparing a drug for treating obesity and cosmetically treating overweight” (priority 2004, dated 2009):

Legend:
[1] = system: mice fattened on a high fat/high sucrose diet (HF/HS); experiment: Food intake of mice on HF/HS diet; assay type: in vivo; settings: for Food: HF/HS diet, TZD 10 mg/kg/dy
[2] = system: mice fattened on a high fat/high sucrose diet (HF/HS); experiment: Body temperature and energy expenditure (indirect calorimetry); assay type: in vivo

CN(CCOc1ccc(CC2SC(=O)NC2=O)cc1)c1ccccn1 (stereo not shown) [TZD, Rosiglitazone]
food intake ([1]; curative group, TZD, control group 4 g): 3 g | Food ([1]; curative): ↓ | mean food consumption ([1]; preventive group, TZD (ditto)): 3 G | Food ([1]; preventive): ↓ | Body temperature ([2]; curative group): Slight increase | Body temperature ([2]; preventive group): no change | Energy expenditure (calorimetry) ([2]; weeks 21 and 22): no change
